Data taken from patent publication US5702926.
Protein sequences can lack the tags named with them.

Target: T1, BsoBI restriction endonuclease (UniProt P70985)
T1 sequence (looked up, limits assumed): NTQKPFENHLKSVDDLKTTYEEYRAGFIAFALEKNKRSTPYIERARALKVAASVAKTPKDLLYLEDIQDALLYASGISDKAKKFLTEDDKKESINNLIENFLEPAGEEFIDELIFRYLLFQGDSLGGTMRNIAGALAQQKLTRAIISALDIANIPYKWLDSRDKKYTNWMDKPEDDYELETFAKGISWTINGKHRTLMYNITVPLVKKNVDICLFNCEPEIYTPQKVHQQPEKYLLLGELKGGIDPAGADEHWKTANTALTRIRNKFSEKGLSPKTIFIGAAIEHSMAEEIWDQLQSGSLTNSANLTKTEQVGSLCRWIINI
Experiment: enzyme reaction in vitro
Details: modified strand completely protected, unmodified strand efficiently cleaved (nicking), 35 mM KiPO4, 60 C, 15 min, purified recombinant protein, label: 32P 5' end on template or primer

Sequence: CTCGGG (double strand)
- activity on this sequence (PS dC in the extended strand): active
- activity on this sequence (alpha-boranophosphate dC in the extended strand): active
